According to US20010011078A1 (University of Texas, published 2001):
These are yes or no findings as the source states them, for the method shown. In cells and extracts the contact can be indirect. Some entries that bind do so weakly or less than the wild type. Sequences can lack the tags named with a protein.

Biological target: T1, recombinant DFF40 tagged with six histidine at its C-terminus (human) (UniProt O76075)
T1 sequence: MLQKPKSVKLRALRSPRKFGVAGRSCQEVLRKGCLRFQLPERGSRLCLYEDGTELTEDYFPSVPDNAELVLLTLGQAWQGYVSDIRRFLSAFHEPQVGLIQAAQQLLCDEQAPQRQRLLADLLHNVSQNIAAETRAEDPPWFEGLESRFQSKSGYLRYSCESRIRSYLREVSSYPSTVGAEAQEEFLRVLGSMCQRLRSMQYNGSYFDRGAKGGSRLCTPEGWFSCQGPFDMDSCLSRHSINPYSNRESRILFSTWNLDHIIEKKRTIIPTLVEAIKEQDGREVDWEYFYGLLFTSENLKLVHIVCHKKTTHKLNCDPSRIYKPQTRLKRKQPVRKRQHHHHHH
Assay: co-purification of untagged DFF45 with C-terminally His-tagged DFF40 on a nickel affinity column (E. coli co-expression)

- binding: binds
B1: DFF45 (45-kDa subunit of DNA fragmentation factor), native human protein (other)
chain: MEVTGDAGVPESGEIRTLKPCLLRRNYSREQHGVAASCLEDLRSKACDILAIDKSLTPVTLVLAEDGTIVDDDDYFLCLPSNTKFVALASNEKWAYNNSDGGTAWISQESFDVDETDSGAGLKWKNVARELKEDLSSIILLSEEDLQMLVDAPCSDLAQELRQSCATVQRLQHTLQQVLDQREEVRQSKQLLQLYLQALEKEGSLLSKQEESKAAFGEEVDAVDTGMSRETSSDVALASHILTALREKQAPELSLSSQDLELVTKEDPKALAVALNWDIKKTETVQEACERELALRLQQTQSLHSLRSISASKASPPGDLQNPKRARQDPT
notes: Native protein, purified from HeLa S-100 as part of the DFF heterodimer, or endogenous in 293 and U937 cell extracts; also called 45-kDa polypeptide; endogenous protein
